Data from paper PMC6650407 (Scientific Reports, 2019).

Target: T1, SyFumC (GST-SyFumC; Synechocystis 6803 fumarase C) (Synechocystis sp. PCC 6803, UniProt Q55674)
T1 construct: gene fumC
T1 sequence (Q55674 1-466): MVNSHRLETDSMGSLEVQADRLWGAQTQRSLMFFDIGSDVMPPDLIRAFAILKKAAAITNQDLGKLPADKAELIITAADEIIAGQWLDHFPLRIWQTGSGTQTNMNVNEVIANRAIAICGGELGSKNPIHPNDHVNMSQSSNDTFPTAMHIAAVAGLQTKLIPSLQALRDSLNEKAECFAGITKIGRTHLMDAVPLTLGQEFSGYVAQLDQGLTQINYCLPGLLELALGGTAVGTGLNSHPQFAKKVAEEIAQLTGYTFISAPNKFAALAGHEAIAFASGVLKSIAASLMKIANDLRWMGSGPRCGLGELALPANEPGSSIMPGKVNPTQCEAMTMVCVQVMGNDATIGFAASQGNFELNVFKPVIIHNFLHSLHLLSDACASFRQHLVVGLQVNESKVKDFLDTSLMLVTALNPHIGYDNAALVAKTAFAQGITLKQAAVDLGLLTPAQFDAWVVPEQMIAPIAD
Experiment: inhibition, absorbance at […] nm
Type: biochemical
Details: read-out: % of control activity at 4 mM

Compound: O=C(O)CC(O)(CC(=O)O)C(=O)O [citrate]
- remaining activity at 4000 µM: 45 to 58%
